Experimental data published in US9081017.
No constants are given. Whether binding was seen depends on the method and setting. For some assays here: In cells and extracts the contact can be indirect. Some results given as binding are weak or reduced against the parent protein; the word gives no strength.

Tests used:
[1] = target: T1, TNFR2 (mouse, endogenous in hindlimb muscle of C57BL/6 mice) (mouse) (UniProt P25119); experiment: summary of the immunoprecipitation results in ischemic mouse hindlimb
T1 sequence (looked up): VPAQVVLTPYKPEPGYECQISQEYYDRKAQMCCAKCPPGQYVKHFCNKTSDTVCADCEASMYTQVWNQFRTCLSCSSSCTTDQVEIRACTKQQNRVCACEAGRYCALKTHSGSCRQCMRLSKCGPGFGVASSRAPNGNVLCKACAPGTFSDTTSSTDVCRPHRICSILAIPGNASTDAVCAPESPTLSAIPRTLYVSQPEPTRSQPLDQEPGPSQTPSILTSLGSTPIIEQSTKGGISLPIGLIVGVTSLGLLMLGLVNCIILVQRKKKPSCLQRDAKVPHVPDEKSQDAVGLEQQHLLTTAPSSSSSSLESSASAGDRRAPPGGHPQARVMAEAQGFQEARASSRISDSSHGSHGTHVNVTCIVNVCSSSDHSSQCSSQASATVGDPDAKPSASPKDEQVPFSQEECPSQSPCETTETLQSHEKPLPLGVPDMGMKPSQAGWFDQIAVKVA

[2] = target: T1, TNFR2 (mouse, endogenous in hindlimb muscle of C57BL/6 mice) (mouse); experiment: co-immunoprecipitation from ischemic hindlimb muscle of C57BL/6 mice

binding [1]: binds
binding [2]: binds
B1: Bmx/Etk (mouse, endogenous) (enzyme, UniProt P97504 1-651, looked up)
chain: MESKSILEELLLKKSQQKKKMSPNNYKERLFVLTKTSLSYYEYDKMKRGSRKGSIEIKKIRCVEKVNLEEQTPVERQYPFQIVYKDGLLYVYASNEESRCQWLKALQKEIRGNPHLLIKYHSGFFVDGKFLCCQQSCKAAPGCTLWEAYADLHIAISDEKHRAPTFPERLLKIPRAVPVLKMDASSSGAILPQYDSYSKKSCGSQPTSNIRYIPREDCPDWWQVRKLKSEEDIACSNQLERNIASHSTSKMSWGFPESSSSEEEENLHAYDWFAGNISRSQSEQLLRQKGKEGAFMVRNSSQMGMYTVSLFSKAVNDKKGTVKHYHVHTNAENKLYLAENYCFDSIPKLIHYHQHNSAGMITRLRHPVSTKANKVPVSVALGSGIWELKREEITLLKELGNGQFGVVQLGQWKGQYDVAVKMIKEGAMSEDEFFQEAQTMMKLSHPKLVKFYGVCSKKYPIYIVTEYITNGCLLNYLKSHGKGLESCQLLEMCYDVCEGMAFLESHQFIHRDLAARNCLVDSDLSVKVSDFGMTRYVLDDQYVSSVGTKFPVKWSAPEVFHYFKYSSKSDVWAFGILMWEVFSLGKQPYDLYDNSEVVVKVSQGHRLYRPQLASDTIYQIMYSCWHELPEKRPTFQQLLSAIEPLREQDKP
